Values quoted from earlier work as cited in patent US6124352A (priority 1994, dated 2000).

Conditions: in words; cited from earlier work

C[C@@H]1[C@H](O)[C@@H](C)/C=C/C=C/C=C/C=C/C=C/C=C/C=C/[C@H](O[C@@H]2O[C@H](C)[C@@H](O)[C@H](N)[C@@H]2O)C[C@@H]2O[C@](O)(C[C@@H](O)C[C@@H](O)[C@H](O)CC[C@@H](O)C[C@@H](O)CC(=O)O[C@H]1C)C[C@H](O)[C@H]2C(=O)O [Amphotericin B, amphotericin B]
water solubility (amphotericin B): water insoluble
